Results deposited as PubChem BioAssay AID1259405 (NCATS, 2018)
Aim: 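Mouse-designed siRNAs used to find CHO productivity engineering targets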 (primary screen). System: Chinese hamster CHO-K1 ovary cells with stable secreted eGFP expression. Knock-down reagent: single siRNA against mouse genes, 0.8 pmol siRNA per well (2 µl of 400 nM stock). Time to read-out: 3 days. Measured: 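Percent of the per-plate non-targeting control median for intracellular GFP per well by laser scanning cytometry and for cell viability by ATP luminescence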. Reading the numbers: GFP, % of control: higher = more GFP per well, higher productivity. Hit rule: 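Called active when intracellular GFP, relative to negative control, is at or above 120%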.
Here is one part, drawn at random, of about 50,000 reagents. Over the whole deposit, about 4,000 (8%) were called active. 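Mouse siRNA library applied to hamster cells; one well for each siRNA.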 Entries without a mark were called inactive. The numbers tell different reagents against one gene apart. Not all columns of the deposit are shown.

GFP, % of control, by gene and reagent
Gprc5a (GeneID 232431): #1 65.2; #2 102
Sigmar1 (GeneID 18391): #1 32.5; #2 37
Piwil4 (GeneID 330890): #1 34; #2 39; #3 49
Or2w1 (GeneID 18341): #1 70.3; #2 122 (active); #3 74.4
Zfp692 (GeneID 103836): #1 44.6; #2 83.7
Htr5b (GeneID 15564): #1 85.1; #2 59.8; #3 54.9
Ltf (GeneID 17002): #1 98; #2 52.9; #3 55.2
Tbc1d7 (GeneID 67046): #1 47.4; #2 117; #3 154 (active)
Nobox (GeneID 18291): #1 132 (active); #2 46.8
Dennd5a (GeneID 19347): #1 92.2; #2 109; #3 65.3
Aldoc (GeneID 11676): #1 39.9; #2 51.2; #3 45.7
Gclc (GeneID 14629): #1 59.4; #2 78.2; #3 79.7
Plxnb2 (GeneID 140570): #1 61.1
Klhdc4 (GeneID 234825): #1 64.1; #2 79; #3 107

Already shown: 2 of the entries above.
GFP, % of control, by gene and reagent
Dennd5a (GeneID 19347): #1 92.2; #2 109
